Where no end group is shown, it is not given here. The star is where a group is joined. tBu = CC(C)(C)*
Key:
[1] = general procedure: Fmoc solid-phase peptide synthesis; HATU, 4-methylmorpholine; settings: whole synthesis, based on 0.1 mmol scale, scale 0.1 mmol
[2] = general procedure: Fmoc solid-phase peptide synthesis; Aminomethyl polystyrene resin, Fmoc-Val-HMPP; HATU, 4-methylmorpholine; settings: whole synthesis, scale 0.1 mmol

Ac-CSKKKKNLVPC(tBu)VATV
isolated yield [1]: 43%
isolated mass [2]: 74 mg

From patent US11464853B2 (Auckland UniServices Limited, priority 2016, dated 2022)
